No constants are given. Whether binding was seen depends on the method and setting. In cells and extracts the contact can be indirect. Here binding means that the protein was enriched with, or labelled near, the bait; the list need not be complete. Tags and fused reporters may be left off the sequences shown.

The chains behind the UniProt entries cited, without tags or fusion partners.
UniProt Q92769: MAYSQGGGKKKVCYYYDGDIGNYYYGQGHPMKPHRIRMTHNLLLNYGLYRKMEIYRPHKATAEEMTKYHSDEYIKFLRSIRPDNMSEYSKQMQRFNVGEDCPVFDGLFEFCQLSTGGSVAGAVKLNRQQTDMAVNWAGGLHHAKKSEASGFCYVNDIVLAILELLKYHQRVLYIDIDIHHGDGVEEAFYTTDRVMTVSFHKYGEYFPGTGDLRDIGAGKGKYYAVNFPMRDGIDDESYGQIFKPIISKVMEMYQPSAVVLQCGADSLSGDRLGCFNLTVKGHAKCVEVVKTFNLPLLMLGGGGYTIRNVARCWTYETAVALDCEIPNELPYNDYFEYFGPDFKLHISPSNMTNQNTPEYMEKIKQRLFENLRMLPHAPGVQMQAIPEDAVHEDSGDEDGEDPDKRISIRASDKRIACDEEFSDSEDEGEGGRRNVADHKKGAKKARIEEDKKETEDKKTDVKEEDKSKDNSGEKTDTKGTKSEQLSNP
UniProt P09874: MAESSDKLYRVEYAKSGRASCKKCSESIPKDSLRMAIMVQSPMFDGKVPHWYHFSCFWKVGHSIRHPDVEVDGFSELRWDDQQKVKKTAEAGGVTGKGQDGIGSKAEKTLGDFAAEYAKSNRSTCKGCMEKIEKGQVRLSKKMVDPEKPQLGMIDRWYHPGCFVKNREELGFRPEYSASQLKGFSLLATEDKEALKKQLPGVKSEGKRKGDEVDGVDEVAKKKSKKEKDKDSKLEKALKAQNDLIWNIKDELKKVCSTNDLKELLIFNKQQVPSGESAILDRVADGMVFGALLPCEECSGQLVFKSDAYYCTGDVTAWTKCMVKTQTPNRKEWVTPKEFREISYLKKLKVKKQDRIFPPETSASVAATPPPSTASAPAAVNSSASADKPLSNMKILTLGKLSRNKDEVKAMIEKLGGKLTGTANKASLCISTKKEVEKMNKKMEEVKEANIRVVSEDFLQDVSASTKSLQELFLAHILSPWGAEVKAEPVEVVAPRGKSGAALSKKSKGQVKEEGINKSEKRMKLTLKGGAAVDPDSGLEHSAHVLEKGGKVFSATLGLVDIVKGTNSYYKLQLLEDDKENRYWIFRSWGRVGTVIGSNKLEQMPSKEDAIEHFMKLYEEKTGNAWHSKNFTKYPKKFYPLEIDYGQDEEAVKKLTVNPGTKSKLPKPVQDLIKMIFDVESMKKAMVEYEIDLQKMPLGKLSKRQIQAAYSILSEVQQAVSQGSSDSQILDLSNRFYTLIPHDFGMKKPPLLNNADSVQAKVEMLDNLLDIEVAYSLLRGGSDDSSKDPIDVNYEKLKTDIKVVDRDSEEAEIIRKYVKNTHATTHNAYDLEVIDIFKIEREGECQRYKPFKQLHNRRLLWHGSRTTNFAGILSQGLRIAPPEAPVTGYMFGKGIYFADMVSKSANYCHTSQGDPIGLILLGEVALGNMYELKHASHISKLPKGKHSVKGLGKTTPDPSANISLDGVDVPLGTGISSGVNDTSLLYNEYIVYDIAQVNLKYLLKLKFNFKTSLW
UniProt P62316: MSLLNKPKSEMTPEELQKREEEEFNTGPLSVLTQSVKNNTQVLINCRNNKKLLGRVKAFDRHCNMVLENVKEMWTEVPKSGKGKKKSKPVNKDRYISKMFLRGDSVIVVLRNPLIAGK
UniProt P62318: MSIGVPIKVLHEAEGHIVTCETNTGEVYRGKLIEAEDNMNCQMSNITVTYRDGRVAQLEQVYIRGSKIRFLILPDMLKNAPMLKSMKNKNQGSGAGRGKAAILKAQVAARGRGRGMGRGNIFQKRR
UniProt Q13242: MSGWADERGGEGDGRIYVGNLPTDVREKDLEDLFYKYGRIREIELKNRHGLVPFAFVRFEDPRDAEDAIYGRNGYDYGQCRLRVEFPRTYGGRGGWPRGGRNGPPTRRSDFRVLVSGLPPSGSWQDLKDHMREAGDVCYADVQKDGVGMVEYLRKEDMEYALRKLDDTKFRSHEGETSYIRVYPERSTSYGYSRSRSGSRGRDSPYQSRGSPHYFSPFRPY
UniProt Q08945: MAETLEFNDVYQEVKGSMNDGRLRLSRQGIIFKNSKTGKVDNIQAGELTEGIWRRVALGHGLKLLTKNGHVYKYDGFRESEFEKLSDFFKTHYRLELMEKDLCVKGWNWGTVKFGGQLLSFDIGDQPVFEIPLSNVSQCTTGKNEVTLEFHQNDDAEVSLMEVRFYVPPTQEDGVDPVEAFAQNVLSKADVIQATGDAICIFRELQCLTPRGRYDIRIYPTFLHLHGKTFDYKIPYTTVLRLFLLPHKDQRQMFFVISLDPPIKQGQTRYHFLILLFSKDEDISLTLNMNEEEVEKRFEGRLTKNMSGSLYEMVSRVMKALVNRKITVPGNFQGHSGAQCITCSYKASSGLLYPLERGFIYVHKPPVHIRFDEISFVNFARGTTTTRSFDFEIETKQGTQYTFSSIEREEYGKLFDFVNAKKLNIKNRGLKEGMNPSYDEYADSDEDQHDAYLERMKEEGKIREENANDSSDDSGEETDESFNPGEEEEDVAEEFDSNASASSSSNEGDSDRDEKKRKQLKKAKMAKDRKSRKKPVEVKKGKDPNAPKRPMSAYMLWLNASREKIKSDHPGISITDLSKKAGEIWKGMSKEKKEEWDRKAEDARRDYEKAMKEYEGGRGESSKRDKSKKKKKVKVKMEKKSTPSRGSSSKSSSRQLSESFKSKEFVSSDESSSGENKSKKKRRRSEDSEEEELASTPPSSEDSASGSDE

The labels stand for the following.
T1: Special AT-rich binding protein 2 (SATB2), GFP-tagged (human) (UniProt Q9UPW6)
T1 sequence: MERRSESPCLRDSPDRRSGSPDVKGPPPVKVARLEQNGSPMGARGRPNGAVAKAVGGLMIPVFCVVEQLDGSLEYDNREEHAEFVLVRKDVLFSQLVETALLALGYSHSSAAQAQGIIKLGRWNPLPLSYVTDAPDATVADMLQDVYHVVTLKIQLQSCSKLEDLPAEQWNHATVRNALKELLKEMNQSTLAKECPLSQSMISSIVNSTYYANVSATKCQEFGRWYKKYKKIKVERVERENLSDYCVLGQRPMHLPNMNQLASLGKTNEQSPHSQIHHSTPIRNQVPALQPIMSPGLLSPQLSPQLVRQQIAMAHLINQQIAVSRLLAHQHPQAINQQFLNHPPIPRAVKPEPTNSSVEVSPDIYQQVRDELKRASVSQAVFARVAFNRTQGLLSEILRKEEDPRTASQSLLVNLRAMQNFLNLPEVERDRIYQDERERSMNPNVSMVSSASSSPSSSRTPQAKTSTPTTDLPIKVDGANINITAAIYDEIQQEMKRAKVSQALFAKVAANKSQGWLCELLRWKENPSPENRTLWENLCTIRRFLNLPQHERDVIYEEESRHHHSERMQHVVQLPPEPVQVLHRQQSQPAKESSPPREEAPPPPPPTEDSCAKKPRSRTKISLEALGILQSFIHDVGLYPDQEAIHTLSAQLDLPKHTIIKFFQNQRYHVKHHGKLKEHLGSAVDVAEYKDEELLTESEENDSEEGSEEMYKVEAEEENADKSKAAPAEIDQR

B1: SRSF6 (protein, UniProt Q13247 1-344)
chain: MPRVYIGRLSYNVREKDIQRFFSGYGRLLEVDLKNGYGFVEFEDSRDADDAVYELNGKELCGERVIVEHARGPRRDRDGYSYGSRSGGGGYSSRRTSGRDKYGPPVRTEYRLIVENLSSRCSWQDLKDFMRQAGEVTYADAHKERTNEGVIEFRSYSDMKRALDKLDGTEINGRNIRLIEDKPRTSHRRSYSGSRSRSRSRRRSRSRSRRSSRSRSRSISKSRSRSRSRSKGRSRSRSKGRKSRSKSKSKPKSDRGSHSHSRSRSKDEYEKSRSRSRSRSPKENGKGDIKSKSRSRSQSRSNSPLPVPPSKARSVSPPPKRATSRSRSRSRSKSRSRSRSSSRD
B2: BANF1 (protein, UniProt O75531 1-89)
chain: MTTSQKHRDFVAEPMGEKPVGSLAGIGEVLGKKLEERGFDKAYVVLGQFLVLKKDEDLFREWLKDTCGANAKQSRDCFGCLREWCDAFL
B3: TRA2B (protein, UniProt P62995 1-288)
chain: MSDSGEQNYGERESRSASRSGSAHGSGKSARHTPARSRSKEDSRRSRSKSRSRSESRSRSRRSSRRHYTRSRSRSRSHRRSRSRSYSRDYRRRHSHSHSPMSTRRRHVGNRANPDPNCCLGVFGLSLYTTERDLREVFSKYGPIADVSIVYDQQSRRSRGFAFVYFENVDDAKEAKERANGMELDGRRIRVDFSITKRPHTPTPGIYMGRPTYGSSRRRDYYDRGYDRGYDDRDYYSRSYRGGGGGGGGWRAAQDRDQIYRRRSPSPYYSRGGYRSRSRSRSYSPRRY
B4: SRSF3 (protein, UniProt P84103 1-164)
chain: MHRDSCPLDCKVYVGNLGNNGNKTELERAFGYYGPLRSVWVARNPPGFAFVEFEDPRDAADAVRELDGRTLCGCRVRVELSNGEKRSRNRGPPPSWGRRPRDDYRRRSPPPRRRSPRRRSFSRSRSRSLSRDRRRERSLSRERNHKPSRSFSRSRSRSRSNERK

In this assay the target is T1, Special AT-rich binding protein 2 (SATB2), GFP-tagged (human). As to the kind of experiment: affinity purification with mass spectrometry; 1 mg crude RIPA lysate of transfected BEAS-2B cells expressing GFP-tagged SATB2 and 3×FLAG tagged circ3915; anti-FLAG M2 affinity gel, 4 °C overnight; keratins and proteins of empty vector controls filtered out.
As for HDAC2 (from UniProt Q92769 1-488), the binding result is reported as “binds”.

For the molecule PARP1 (from UniProt P09874 1-1014), the binding entry was “binds”.

Turning to SNRPD2 (from UniProt P62316 1-118), the binding result is reported as “binds”.

On to SNRPD3 (from UniProt P62318 1-126), for which the binding result is given as “binds”.

On to SRSF9 (from UniProt Q13242 1-221), for which the binding entry was “binds”.

SSRP1 (from UniProt Q08945 1-709): the binding entry is “binds”.

Take “macroH2A (human (endogenous in BEAS-2B))”: the binding entry was “binds”.

For the molecule B1, the binding entry was “binds”.

On to B2, for which the binding entry is on record as “binds”.

With B3, the binding result is given as “binds”.

In the case of B4, the binding result is recorded as “binds”.

The values are drawn from paper PMC13551775.
